Results reported in the supplement of paper PMC10849652.
The other results are listed elsewhere or left out.

The chains behind the UniProt entries cited, without tags or fusion partners. Where a name states a change or a piece, a line headed by the entry shows the natural chain unless it says otherwise.
UniProt Q9Y5L0: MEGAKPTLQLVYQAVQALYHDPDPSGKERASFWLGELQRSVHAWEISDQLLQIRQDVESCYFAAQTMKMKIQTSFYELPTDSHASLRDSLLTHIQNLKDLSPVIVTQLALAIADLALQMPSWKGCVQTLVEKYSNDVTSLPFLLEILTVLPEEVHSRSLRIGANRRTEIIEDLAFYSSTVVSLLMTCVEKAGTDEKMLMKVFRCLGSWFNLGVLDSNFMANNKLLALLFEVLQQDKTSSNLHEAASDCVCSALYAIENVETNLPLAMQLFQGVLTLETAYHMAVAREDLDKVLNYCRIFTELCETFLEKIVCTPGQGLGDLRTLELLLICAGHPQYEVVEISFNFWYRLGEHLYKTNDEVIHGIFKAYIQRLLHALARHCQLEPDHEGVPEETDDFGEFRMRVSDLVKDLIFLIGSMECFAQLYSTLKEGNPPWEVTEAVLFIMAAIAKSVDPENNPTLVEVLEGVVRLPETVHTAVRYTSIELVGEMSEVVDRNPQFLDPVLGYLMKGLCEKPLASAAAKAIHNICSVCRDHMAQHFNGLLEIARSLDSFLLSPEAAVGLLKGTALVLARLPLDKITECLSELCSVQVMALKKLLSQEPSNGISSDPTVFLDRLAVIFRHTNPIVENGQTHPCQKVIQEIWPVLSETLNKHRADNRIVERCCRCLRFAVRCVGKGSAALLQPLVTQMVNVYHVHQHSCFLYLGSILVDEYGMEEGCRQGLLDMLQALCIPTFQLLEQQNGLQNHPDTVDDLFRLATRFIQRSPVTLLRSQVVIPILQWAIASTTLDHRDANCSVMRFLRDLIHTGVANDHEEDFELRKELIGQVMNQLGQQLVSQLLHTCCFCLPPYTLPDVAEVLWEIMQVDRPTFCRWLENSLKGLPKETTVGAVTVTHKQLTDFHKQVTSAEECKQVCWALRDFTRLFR
UniProt O43715: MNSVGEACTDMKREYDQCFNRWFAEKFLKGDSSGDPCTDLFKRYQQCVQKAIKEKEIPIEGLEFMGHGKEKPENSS
UniProt Q15642: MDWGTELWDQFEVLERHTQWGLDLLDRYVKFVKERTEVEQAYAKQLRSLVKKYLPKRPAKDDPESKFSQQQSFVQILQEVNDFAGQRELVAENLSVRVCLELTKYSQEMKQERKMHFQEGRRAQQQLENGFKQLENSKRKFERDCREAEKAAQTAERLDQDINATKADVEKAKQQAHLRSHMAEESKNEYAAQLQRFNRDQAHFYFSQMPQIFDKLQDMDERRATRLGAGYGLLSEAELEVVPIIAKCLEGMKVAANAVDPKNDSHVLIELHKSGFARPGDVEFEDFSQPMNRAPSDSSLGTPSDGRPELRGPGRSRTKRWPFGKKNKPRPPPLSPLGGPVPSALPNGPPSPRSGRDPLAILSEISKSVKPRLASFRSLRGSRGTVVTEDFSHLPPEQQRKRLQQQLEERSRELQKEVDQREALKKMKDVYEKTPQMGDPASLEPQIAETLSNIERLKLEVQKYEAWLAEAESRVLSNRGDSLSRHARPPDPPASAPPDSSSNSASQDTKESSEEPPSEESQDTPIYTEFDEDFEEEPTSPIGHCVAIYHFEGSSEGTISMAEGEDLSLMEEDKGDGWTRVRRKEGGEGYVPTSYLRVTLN
UniProt P67936, whole entry, looked up: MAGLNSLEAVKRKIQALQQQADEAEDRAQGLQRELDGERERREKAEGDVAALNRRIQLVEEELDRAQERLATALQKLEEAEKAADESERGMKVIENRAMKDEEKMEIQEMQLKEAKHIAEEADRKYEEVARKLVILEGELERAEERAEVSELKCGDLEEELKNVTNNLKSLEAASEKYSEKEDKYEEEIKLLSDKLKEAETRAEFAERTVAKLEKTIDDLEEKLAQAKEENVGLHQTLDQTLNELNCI
UniProt P07951, whole entry, looked up: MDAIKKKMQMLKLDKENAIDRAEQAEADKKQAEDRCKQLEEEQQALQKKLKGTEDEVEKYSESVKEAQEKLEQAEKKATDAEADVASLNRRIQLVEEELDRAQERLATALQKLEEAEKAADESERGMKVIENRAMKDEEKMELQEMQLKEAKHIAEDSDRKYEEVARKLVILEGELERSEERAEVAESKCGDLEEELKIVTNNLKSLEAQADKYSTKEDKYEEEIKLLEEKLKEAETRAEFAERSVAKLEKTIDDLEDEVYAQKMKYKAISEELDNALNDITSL
UniProt Q9NUP7: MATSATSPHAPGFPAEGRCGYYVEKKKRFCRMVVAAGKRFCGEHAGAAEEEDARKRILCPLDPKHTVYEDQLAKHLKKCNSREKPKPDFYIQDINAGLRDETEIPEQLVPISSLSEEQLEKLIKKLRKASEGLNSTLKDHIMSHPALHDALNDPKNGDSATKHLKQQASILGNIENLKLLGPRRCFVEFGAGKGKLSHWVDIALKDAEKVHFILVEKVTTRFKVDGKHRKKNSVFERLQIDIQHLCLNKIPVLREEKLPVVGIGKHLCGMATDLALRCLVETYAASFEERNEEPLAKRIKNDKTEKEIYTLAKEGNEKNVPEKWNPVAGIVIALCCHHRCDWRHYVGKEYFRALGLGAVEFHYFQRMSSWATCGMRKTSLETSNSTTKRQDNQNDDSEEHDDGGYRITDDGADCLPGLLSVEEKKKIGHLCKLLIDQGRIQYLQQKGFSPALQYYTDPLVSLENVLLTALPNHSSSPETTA
UniProt P60174, whole entry, looked up: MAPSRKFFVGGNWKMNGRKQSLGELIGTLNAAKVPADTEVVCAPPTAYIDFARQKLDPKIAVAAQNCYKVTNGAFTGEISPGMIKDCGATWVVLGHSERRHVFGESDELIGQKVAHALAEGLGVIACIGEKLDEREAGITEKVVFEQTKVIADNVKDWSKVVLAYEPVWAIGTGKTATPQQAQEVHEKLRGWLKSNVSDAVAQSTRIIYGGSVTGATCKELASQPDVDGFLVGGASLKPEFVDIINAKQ
UniProt Q9NXH8: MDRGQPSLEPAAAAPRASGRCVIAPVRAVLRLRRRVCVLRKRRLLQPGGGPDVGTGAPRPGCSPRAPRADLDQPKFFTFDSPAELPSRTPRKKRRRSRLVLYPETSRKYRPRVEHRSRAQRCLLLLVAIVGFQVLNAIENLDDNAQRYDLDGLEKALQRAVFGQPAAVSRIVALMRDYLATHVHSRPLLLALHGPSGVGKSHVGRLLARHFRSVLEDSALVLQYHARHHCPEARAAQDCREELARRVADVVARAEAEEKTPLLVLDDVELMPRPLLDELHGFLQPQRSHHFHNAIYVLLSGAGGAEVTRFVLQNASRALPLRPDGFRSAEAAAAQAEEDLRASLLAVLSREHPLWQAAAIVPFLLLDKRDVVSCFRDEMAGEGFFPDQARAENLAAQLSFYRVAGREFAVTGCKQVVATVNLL
UniProt Q7Z392: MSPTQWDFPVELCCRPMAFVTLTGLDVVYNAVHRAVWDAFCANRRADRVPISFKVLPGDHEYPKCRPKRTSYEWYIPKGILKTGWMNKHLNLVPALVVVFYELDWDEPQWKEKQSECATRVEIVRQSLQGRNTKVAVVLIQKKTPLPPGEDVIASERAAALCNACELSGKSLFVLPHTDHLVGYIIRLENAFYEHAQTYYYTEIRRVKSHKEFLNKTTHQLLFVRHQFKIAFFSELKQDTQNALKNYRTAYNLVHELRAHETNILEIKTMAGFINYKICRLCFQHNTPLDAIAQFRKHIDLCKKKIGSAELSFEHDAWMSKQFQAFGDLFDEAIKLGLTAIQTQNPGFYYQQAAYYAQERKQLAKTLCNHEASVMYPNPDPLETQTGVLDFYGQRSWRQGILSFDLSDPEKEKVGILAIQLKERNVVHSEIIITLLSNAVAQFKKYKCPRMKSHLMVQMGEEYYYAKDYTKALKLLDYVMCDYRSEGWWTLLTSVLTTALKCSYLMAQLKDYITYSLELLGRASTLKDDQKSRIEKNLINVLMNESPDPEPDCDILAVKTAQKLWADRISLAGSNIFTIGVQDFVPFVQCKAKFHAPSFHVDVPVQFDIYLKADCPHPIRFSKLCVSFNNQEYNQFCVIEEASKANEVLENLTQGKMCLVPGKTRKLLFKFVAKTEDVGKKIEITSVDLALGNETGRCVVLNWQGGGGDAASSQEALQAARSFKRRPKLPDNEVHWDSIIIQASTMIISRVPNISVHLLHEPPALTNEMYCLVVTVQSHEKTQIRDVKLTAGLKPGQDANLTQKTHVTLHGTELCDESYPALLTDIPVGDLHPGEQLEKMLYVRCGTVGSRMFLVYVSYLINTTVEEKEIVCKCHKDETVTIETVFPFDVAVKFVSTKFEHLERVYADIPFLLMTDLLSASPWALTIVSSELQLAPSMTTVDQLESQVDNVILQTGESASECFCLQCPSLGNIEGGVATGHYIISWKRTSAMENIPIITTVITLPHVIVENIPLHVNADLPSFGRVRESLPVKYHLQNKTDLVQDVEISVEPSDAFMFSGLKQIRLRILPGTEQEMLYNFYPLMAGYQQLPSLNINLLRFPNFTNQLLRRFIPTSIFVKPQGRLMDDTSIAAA
UniProt Q13049: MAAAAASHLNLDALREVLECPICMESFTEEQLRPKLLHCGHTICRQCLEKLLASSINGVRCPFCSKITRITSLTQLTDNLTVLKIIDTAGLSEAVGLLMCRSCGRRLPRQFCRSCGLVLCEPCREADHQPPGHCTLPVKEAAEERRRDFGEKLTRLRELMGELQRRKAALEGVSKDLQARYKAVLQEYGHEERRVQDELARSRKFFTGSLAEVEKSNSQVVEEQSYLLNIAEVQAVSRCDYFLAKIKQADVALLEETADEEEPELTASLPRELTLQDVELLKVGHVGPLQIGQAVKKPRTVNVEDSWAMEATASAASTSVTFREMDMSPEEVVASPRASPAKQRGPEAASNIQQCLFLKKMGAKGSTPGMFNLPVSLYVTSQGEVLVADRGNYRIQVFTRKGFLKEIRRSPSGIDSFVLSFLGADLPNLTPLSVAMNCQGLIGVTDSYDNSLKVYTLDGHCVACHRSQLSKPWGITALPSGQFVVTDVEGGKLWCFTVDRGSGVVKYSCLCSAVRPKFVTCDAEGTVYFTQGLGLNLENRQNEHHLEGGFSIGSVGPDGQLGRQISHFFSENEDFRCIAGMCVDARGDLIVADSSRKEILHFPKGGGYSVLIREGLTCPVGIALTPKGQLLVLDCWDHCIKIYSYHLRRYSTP
UniProt Q9NS69: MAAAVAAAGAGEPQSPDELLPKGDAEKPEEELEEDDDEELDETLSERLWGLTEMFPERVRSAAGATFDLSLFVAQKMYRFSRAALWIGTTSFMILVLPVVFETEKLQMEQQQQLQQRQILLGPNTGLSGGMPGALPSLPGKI
UniProt Q8N4H5: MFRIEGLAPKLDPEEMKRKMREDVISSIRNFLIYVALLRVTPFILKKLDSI
UniProt O60784, whole entry, looked up: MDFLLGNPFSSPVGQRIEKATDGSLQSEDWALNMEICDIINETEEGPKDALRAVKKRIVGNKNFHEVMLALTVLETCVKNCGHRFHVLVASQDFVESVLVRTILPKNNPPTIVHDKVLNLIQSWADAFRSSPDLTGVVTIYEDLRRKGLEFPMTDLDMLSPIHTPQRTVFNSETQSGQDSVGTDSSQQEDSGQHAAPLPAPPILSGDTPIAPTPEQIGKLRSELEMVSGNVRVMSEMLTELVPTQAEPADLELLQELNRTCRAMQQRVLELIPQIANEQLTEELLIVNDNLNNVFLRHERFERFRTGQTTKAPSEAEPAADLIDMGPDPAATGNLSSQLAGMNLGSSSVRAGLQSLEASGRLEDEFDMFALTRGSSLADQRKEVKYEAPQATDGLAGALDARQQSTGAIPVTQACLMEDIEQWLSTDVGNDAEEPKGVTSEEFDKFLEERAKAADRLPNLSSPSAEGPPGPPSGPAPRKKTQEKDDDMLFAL
UniProt Q9UL33, whole entry, looked up: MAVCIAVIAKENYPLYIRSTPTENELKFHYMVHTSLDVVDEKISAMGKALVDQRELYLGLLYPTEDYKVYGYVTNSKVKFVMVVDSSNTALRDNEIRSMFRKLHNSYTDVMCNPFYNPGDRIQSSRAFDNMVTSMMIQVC
UniProt O43399: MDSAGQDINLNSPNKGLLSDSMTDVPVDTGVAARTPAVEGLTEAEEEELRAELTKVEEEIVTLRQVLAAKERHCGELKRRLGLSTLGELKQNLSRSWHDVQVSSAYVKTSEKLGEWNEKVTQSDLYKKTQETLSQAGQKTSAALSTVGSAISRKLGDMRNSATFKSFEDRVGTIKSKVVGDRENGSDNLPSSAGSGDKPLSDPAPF
UniProt O75674: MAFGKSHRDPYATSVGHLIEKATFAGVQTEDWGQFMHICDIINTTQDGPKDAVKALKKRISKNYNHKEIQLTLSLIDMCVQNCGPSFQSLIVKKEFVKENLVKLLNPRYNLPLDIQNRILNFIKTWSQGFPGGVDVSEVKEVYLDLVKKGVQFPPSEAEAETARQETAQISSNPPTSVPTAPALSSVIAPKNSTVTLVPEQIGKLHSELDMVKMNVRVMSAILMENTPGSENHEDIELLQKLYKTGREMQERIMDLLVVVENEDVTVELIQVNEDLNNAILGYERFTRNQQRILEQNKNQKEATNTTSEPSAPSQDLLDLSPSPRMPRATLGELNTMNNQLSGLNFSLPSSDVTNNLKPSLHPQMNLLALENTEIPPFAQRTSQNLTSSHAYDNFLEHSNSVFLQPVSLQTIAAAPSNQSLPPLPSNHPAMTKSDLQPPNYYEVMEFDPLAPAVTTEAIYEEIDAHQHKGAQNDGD

Compound: O=C(O)c1ccc2c(c1)nc(Nc1cccc(Cl)c1)c1ccncc12 [silmitasertib]
Test: log2 fold change, soluble protein after heating vs DMSO (PISA); higher = thermal stabilisation; K562 cells, 10 uM, 30 min; active = over 0.2 and 3.5 SD of the protein, either way, in both replicates (recomputed)
Method in brief: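 K562 cells at 2×10^6 cells/mL were exposed to 10 μM compound for 30 min, then aliquots were heated for 3 min across 48°C-58°C, pooled, and extracted in PBS containing 0.5% NP-40 at 4°C. The supernatant after 21,000xg for 90 min was taken as soluble protein and measured by TMTpro 16plex LC-MS/MS with channel sums equalised. Thermal stability is reported relative to control samples, with values from duplicates. Fold changes are given on a log2 scale.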

log2 fold change, inactive:
TOX4 (UniProt O94842) 0.085
TPD52L1 (UniProt Q16890) -0.031
TNPO3 (UniProt Q9Y5L0) -0.024
TPM1 (UniProt H7BYY1) 0.005
TOLLIP (UniProt Q9H0E2) -0.069
TRA2B (UniProt P62995) 0.017
TP53BP1 isoform 2 (UniProt Q12888) 0.117
TRIAP1 (UniProt O43715) -0.025
TRIP10 (UniProt Q15642) 0.046
TPM4 isoform 2 (UniProt P67936) -0.009
TSEN2 (UniProt Q8NCE0) 0.197
TNFRSF8 (UniProt P28908) -0.052
TPM2 (UniProt P07951) -0.07
TPX2 (UniProt Q9ULW0) 0.096
TPST2 (UniProt O60704) 0.002
TOR1A (UniProt O14656) 0.025
TRMT13 (UniProt Q9NUP7) -0.011
TRMT1L (UniProt Q7Z2T5) 0.209
TPMT (UniProt P51580) 0.012
TPI1 (UniProt P60174) -0.025
TOR4A (UniProt Q9NXH8) -0.009
TNKS1BP1 (UniProt Q9C0C2) -0.005
TRAPPC11 (UniProt Q7Z392) 0.044
TRIM32 (UniProt Q13049) 0.15
TOMM22 (UniProt Q9NS69) 0.027
TOMM5 isoform 2 (UniProt Q8N4H5) -0.043
TOM1 isoform 2 (UniProt O60784) -0.019
TRAPPC2L (UniProt Q9UL33) 0.037
TRIP10 isoform 2 (UniProt Q15642) -0.065
TPD52L2 isoform 7 (UniProt O43399) -0.03
TPM4, A0A2R8Y5V9 0
TOM1L1 (UniProt O75674) 0.021

Fetched one by one from above, two records:
log2 fold change, inactive:
TOX4 (UniProt O94842) 0.085
TOMM5 isoform 2 (UniProt Q8N4H5) -0.043
